Measurements reported in PubChem BioAssay AID1224826 (NIAID, 2016)
The whole screen tested about 17,000 reagents; this is a random part of them. About 1,110 of all reagents (6.6%) count as active. 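Active means lowered or raised reporter signal; replicate intensities are raw and not normalised per plate.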

Assay: 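Genes that change LPS-induced Tnf promoter activity in mouse macrophages when knocked down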 (primary screen)
Cell system: RAW264.7 G9 macrophages from mouse bearing reporters for p65 (GFP) and the Tnf promoter (mCherry)
Knock-down reagent: siRNA pool against mouse genes, 100 nM
Duration: 16 h of LPS stimulation, after 2 days of siRNA transfection
Challenge: bacterial lipopolysaccharide (Salmonella minnesota R595), 10 ng/ml
Measurement: 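Nuclear mCherry signal of the Tnf promoter reporter measured by imaging after background removal, scaled to each plate median and turned into robust z-scores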
Reading the numbers: Tnf reporter robust z-score: higher = stronger Tnf promoter reporter signal after LPS; Tnf reporter intensity: higher = stronger Tnf promoter reporter signal
Rule for the call: 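Called active when robust z-score is at most -1.3, matching the median of the Tlr4 knock-down control, or over 3; control wells and wells with under 50 cells never active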
Calls: active = Tnf reporter clearly lowered or raised; inactive = no clear change in Tnf reporter

| target | Tnf reporter robust z-score | fewer than 50 cells in well | Tnf reporter intensity, replicate 1 | Tnf reporter intensity, replicate 2 | activity call |
| --- | --- | --- | --- | --- | --- |
| Zfp57 (GeneID 22715) | -1.02 | enough cells in well | 87.9 | 75 | inactive |
| Ptprh (GeneID 545902) | 0.29 | enough cells in well | 338 | 226 | inactive |
| Kctd2 (GeneID 70382) | -0.05 | enough cells in well | 197 | 123 | inactive |
| Clta (GeneID 12757) | -1.43 | enough cells in well | 133 | 103 | active |
| Fnbp1 (GeneID 14269) | 1.76 | enough cells in well | 307 | 276 | inactive |
| Or14j7 (GeneID 383243) | 0.76 | enough cells in well | 260 | 129 | inactive |
| Or7e178 (GeneID 18315) | 0.29 | enough cells in well | 339 | 85.2 | inactive |
| Kremen1 (GeneID 84035) | -0.7 | enough cells in well | 207 | 97.8 | inactive |
| Prl4a1 (GeneID 19110) | 1.64 | enough cells in well | 198 | 204 | inactive |
| Kctd11 (GeneID 216858) | -0.26 | enough cells in well | 188 | 111 | inactive |
| Ankrd17 (GeneID 81702) | -0.65 | enough cells in well | 171 | 137 | inactive |
| Jun (GeneID 16476) | -0.25 | enough cells in well | 255 | 112 | inactive |
| Fam43a (GeneID 224093) | 1.02 | enough cells in well | 263 | 295 | inactive |
| Tmem268 (GeneID 230279) | 0.92 | enough cells in well | 246 | 180 | inactive |
| Fn1 (GeneID 14268) | 0.73 | enough cells in well | 351 | 264 | inactive |
| Igfbp1 (GeneID 16006) | 1.44 | enough cells in well | 355 | 277 | inactive |
| Shtn1 (GeneID 71653) | – | fewer than 50 cells per well; well left out of calls | 197 | 81.5 | inactive |
| Polr2c (GeneID 20021) | 1.72 | enough cells in well | 168 | 242 | inactive |
| Cand2 (GeneID 67088) | – | fewer than 50 cells per well; well left out of calls | 77.8 | 29.7 | inactive |
| Artn (GeneID 11876) | 0.39 | enough cells in well | 220 | 160 | inactive |
| Crtam (GeneID 54698) | 1.21 | enough cells in well | 346 | 270 | inactive |
| Gpr107 (GeneID 277463) | 0.52 | enough cells in well | 228 | 233 | inactive |
| Sstr5 (GeneID 20609) | 0.71 | enough cells in well | 250 | 396 | inactive |
| Pelo (GeneID 105083) | -1.21 | enough cells in well | 90.8 | 76.5 | inactive |
